Laboratory results taken from article PMC9066866.
Results are given in words; binding and its absence hold for the method and conditions named. Binding seen in cells or lysates may run through a third protein. Some binding calls cover weakened binding; strength is not graded here.

The chains behind the UniProt entries cited, without tags or fusion partners.
UniProt Q96FF9: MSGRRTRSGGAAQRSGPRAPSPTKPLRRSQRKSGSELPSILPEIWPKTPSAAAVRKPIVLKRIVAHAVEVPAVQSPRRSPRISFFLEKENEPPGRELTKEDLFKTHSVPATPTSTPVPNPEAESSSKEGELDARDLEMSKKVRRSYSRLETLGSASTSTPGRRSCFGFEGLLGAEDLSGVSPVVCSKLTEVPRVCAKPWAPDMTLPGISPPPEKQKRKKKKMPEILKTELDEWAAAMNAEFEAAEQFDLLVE

Molecular target: Triosephosphate isomerase 1 (TPI1) (human (endogenous in MDA-MB-231 and T47D)) (UniProt P60174)
Experiment: co-IP; antibodies (TPI1, CDCA5 or P62) on protein A/G magnetic beads at 4 °C for 1 h, then incubated with cell lysates; western blot of the precipitate; TPI1 with P62 in MDA-MB-231 and T47D cells

Row | Substance | binding
1 | Cell division cycle associated 5 (CDCA5) (from UniProt Q96FF9 1-252) | binds
2 | Sequestosome-1 (SQSTM1)/P62 (from UniProt Q13501 1-440) | binds
